# Test results: PubChem BioAssay AID493014 (National Center for Advancing Translational Sciences (NCATS), 2011)
# In all, about 340,000 compounds went through this assay and about 170 (0.05%) were called active. The inconclusive results got no clear call from the source; some entries with a clear call stand among them for comparison. The call rests on the fitted dose curve; in most records, active means well fitted inhibition curve with a large enough effect in the signal ratio, with a control signal flat (not every such curve was filed as active); inconclusive means small, poorly fitted or top-dose-only effect, or effect the other way, or a change in a side signal; inactive means flat fitted curve, though single readings scatter; the % refers to the signal ratio. Potencies beside an inconclusive call are fits to weak or partial responses and may not hold up.
# Assay: qHTS Assay to Find Inhibitors of Chronic Active B-Cell Receptor Signaling;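 on activity change, negative = inhibition: plate controls were basal doxycycline-induced cells for no effect and cells given 10 µM MG132 for full effect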
# Settings: ABC-DLBCL IkBa-CBG/CBR reporter, luminescence ratio (green luciferase fused to IkBa over red control in TMD8 lymphoma cells), 4 h; activity change, negative = inhibition: at 46.1 µM (top of the series)
# How it was run: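 Compounds up to 46 uM were incubated four hours with TMD8 cells whose green CBG68 luciferase is fused to IkappaBalpha; red CBR luminescence normalised the signal, and concentration-effect curves were fitted to fusion, red and ratio data.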
# Potency means the concentration at half of the fitted maximal effect.
SMILES,"activity change, negative = inhibition",Potency
O=C(CNC(=O)c1cccs1)NCCN1CCN(c2ccccc2F)CC1,inconclusive: 1.67%,
CSC1=N/C(=C\c2cccnc2)C(=O)N1c1ccccc1,,"inconclusive: 18.4 µM [falling, single point]"
C/C(Cl)=C/Cn1c(SC(C)C)nc2c1c(=O)[nH]c(=O)n2C,inconclusive: -2.43%,
CCCn1c(N)c(C(=O)CSc2nnc(C3CC3)n2C2CC2)c(=O)[nH]c1=O,inconclusive: -0.061%,
Cc1ccc(C)c(-c2cc(C(=O)Nc3nccs3)c3ccccc3n2)c1,inconclusive: 23.1%,
COc1cccc(/C=N\NC(C)=O)c1OC/C=C/c1ccccc1,inconclusive: -3.5%,
CC1CCc2c(sc3nc4n(c(=O)c23)CCS4)C1 (configuration not stated),,"inconclusive: 20.6 µM [falling, single point]"
CC(C)COc1ccc(-c2nnc(-c3ccco3)o2)cc1,inactive,
COc1ccc(C2CC(O)(c3ccccc3)Oc3c(C)ccc(C)c32)cc1 (configuration not stated),,"inconclusive: 17.8 µM [rising, partial curve, poor fit]"
CC(NC(=O)c1ccco1)c1cccc2ccccc12 (configuration not stated),inactive,
CSc1ccc(NC(=O)/C=C/C(=O)O)cc1,inconclusive: 28.4%,
COc1cc2c(cc1OC)CN(CCC(=O)c1ccc(Br)cc1)CC2,,"inconclusive: 15.8 µM [falling, partial curve, poor fit]"
COc1cccc(-c2cc(C(=O)NCC3CCCO3)c3ccccc3n2)c1 (configuration not stated),inconclusive: 1.04%,
O=C1CS/C(=N/N=C/c2c[nH]c3ccccc23)N1,inactive,
COc1ccc2c(c1)C1=NN(/C(C)=C/C(C)=O)C(c3ccc(F)cc3)C1CC2 (configuration not stated),inactive,
O=C(CCNS(=O)(=O)c1ccc(Br)cc1)NCc1ccc2c(c1)OCO2,inconclusive: -127%,
COc1ccc(NC(=O)Cn2nnc(C(=O)Nc3ccccc3C)c2N)cc1,,"inconclusive: 35.5 µM [falling, single point]"
CCc1nnc(NC(=O)CSc2nnc(-c3ccccc3OC)n2-c2ccc(C)cc2)s1,inconclusive: -16%,
COc1cccc(CN2CCC(C(=O)N3CCN(c4ccccc4F)CC3)CC2)c1OC,inconclusive: -0.776%,
Cc1ccc(NC(=O)C2CCN(S(=O)(=O)c3ccc4c(c3)CCCC(=O)N4)CC2)c(Br)c1,inconclusive: 15.5%,
Cc1ccccc1N1C(=O)Cc2ccccc2C1=O,inconclusive: -3.63%,

# In the list so far, these have fluorine.
SMILES,"activity change, negative = inhibition",Potency
O=C(CNC(=O)c1cccs1)NCCN1CCN(c2ccccc2F)CC1,inconclusive: 1.67%,
COc1ccc2c(c1)C1=NN(/C(C)=C/C(C)=O)C(c3ccc(F)cc3)C1CC2 (configuration not stated),inactive,
COc1cccc(CN2CCC(C(=O)N3CCN(c4ccccc4F)CC3)CC2)c1OC,inconclusive: -0.776%,

# More entries:

SMILES,"activity change, negative = inhibition",Potency
COCCCNC(=O)CSc1nc2cc(S(=O)(=O)N3CCCCC3)ccc2o1,inactive,
O=C(c1ccco1)N1CCN(C(=O)c2cccs2)CC1,inconclusive: 4.32%,
OCCN1CCN(c2nc(N3CCCCC3)nc(N3CCCCC3)n2)CC1,,"inconclusive: 28.2 µM [falling, single point]"
CCn1c(=O)c(C(=O)Nc2ccc(C)cc2)c(O)c2ccccc21,inconclusive: 2.11%,
COc1ccc(/C=C/C(=O)OCC(=O)NC2CCCC2)c(OC)c1,inactive,
Nc1nc2nc(-c3cccs3)cc(C(F)(F)F)n2n1,inconclusive: -3.04%,
CC1CCN(c2ccc(-c3cccs3)nn2)CC1,inconclusive: 418%,
Cc1cccc(NS(=O)(=O)c2ccc3c(c2)n(C)c(=O)n3C)c1C,inactive,
Cc1ccccc1OCC(=O)N/N=C/c1ccc(Sc2nc3ccccc3s2)o1,inconclusive: -3.51%,
CC(C)(C)c1csc(NC(=O)c2ccc(Cl)s2)n1,inactive,
Cc1cc(C)n(Cc2ccc(C(=O)NCc3ccco3)o2)n1,,"inconclusive: 16.4 µM [falling, single point]"
O=C(O)Cc1ccc(-c2ccccc2-c2ccccc2)cc1,inactive,
CCc1ccccc1-n1c(SCC(=O)Nc2ccc(C)cc2)nc2n[nH]c(C)c2c1=N,inconclusive: -29.2%,
Cc1ccc(NC(=O)CC2(CC(=O)O)CCCC2)c(C)c1,inconclusive: 0.263%,
O=C1Nc2ccccc2C12OCC(COc1ccc(Cl)cc1)O2 (configuration not stated),,"inconclusive: 0.259 µM [rising, full curve, poor fit]"
Cc1cccc(C)c1OCC(=O)Nc1ccc2c(c1)OCCO2,inconclusive: -12.5%,
COc1ccc(CNC(=O)CSc2ncnc3nc[nH]c23)cc1,inconclusive: 1.08%,
CCC/C(C)=N/NC(=O)c1ccccc1O,,"inconclusive: 6.51 µM [falling, partial curve]"
COc1ccc2nc(NC(=O)C3CCN(S(=O)(=O)c4cnc[nH]4)CC3)sc2c1,inactive,
CC(CNS(=O)(=O)c1ccc2c(c1)NC(=O)CCS2)c1ccccc1 (configuration not stated),inactive,
O=C(CCN1C(=O)/C(=C\c2ccccc2Cl)SC1=S)N1CCN(c2ccccc2)CC1,inactive,

SMILES,"activity change, negative = inhibition",Potency
N#CC(C(=O)NCc1ccco1)c1nc2ccccc2nc1N1CCOCC1 (configuration not stated),,"inconclusive: 25.9 µM [rising, single point]"
COC(=O)c1c(NC(=O)CN2CCN(c3ncccn3)CC2)sc(C(N)=O)c1C,inconclusive: 0.187%,
CCOc1ccc2[nH]c(=O)c(CN(CC3COCCO3)C(=O)c3ccc(C)cc3)cc2c1 (configuration not stated),inconclusive: -17%,
Cc1ccc(S(=O)(=O)/N=C2/NC(=O)/C(=C\c3cc(Br)cc(Br)c3O)S2)cc1,inconclusive: 4.61%,
Cc1ccc(-c2nc3sc4c(c3c(=O)n2N)CCCC4)cc1,inconclusive: 20.8%,
CN(Cc1cnn(Cc2ccccc2)c1)C(=O)CN=C1NS(=O)(=O)c2ccccc21,inactive,
C=C(C)CNC(=O)c1ccc(OC2CCN(S(=O)(=O)N(C)C)CC2)cc1,inconclusive: 0.232%,
COC(=O)c1c(N)c(C#N)c(C)n1-c1ccccc1,,"inconclusive: 20 µM [falling, single point]"
O=C(Nc1ccccc1-c1ccccc1)c1cnccn1,inconclusive: 9.51%,
CC(C)OC(=O)CCC(=O)Nc1nc2ccccc2s1,inactive,
Cc1sc(NC(=O)c2ccc(=O)n(C)n2)nc1-c1ccccc1,inactive,
COc1ccc(C(=O)Nc2ccc3c(c2)N(C2CCCC2)C(=O)c2ccccc2S3)cc1OC,inconclusive: 6.95%,
CC(Nc1cccc([N+](=O)[O-])c1)C(=O)Nc1ccc(S(=O)(=O)N2CCCC2)cc1 (configuration not stated),inconclusive: -13.6%,
CCOc1cccc(SCc2noc(C(=O)NC(C)C)c2C(=O)O)c1,,"inconclusive: 35.5 µM [falling, single point]"
COc1ccc(C(=O)N/N=C/c2ccc(OC)c(OS(=O)(=O)c3ccccc3)c2)cc1,inconclusive: 0.36%,
Cc1ccc(C)c2[nH]c(=O)c(CN(CCN3CCCC3)C(=O)Nc3ccc(F)cc3)cc12,inconclusive: -8.76%,
COc1cccc(/C=N/NC(=O)c2ccc3nc[nH]c3c2)c1O,inconclusive: -8.03%,
O=C(CCS(=O)(=O)Cc1ccccc1F)NCCc1ccc(Cl)cc1,inactive,
COc1ccc(S(=O)(=O)N2CCN(C(=O)CN3C(=O)NC4(CCCC4)C3=O)CC2)cc1,inconclusive: -0.622%,
COC(=O)CSc1nnc(SCc2ccc(Cl)cc2)s1,,"inconclusive: 2.91 µM [falling, partial curve]"
Cc1c(NS(=O)(=O)c2ccc(N=NN(C)C)cc2)c(=O)n(-c2ccccc2)n1C,inconclusive: 13.3%,

SMILES,"activity change, negative = inhibition",Potency
COc1cccc(Nc2nc(N)c([N+](=O)[O-])c(NCc3ccco3)n2)c1,inconclusive: -2.01%,
CC1CCN(C(=O)c2ccc(S(=O)(=O)Cc3cc(F)ccc3F)c([N+](=O)[O-])c2)CC1,,"inconclusive: 18.4 µM [rising, partial curve, poor fit]"
COc1ccccc1C(c1nnnn1Cc1ccccc1)N1CCN(C2CCCC2)CC1 (configuration not stated),inactive,
CC(C)(C)c1cc(C(=O)N/N=C/c2ccccc2O)n(-c2ccccc2)n1,,"inconclusive: 23.1 µM [falling, single point]"
CCOC(=O)c1cc(-c2ccccc2)n[nH]1,inconclusive: -14.4%,
O=C(CSc1nc(=O)n(Cc2ccco2)c2c1CCC2)NCc1ccccc1Cl,,"inconclusive: 10 µM [rising, partial curve, poor fit]"
CSC(=NNC(=O)c1ccccc1O)SC,,"inconclusive: 25.9 µM [falling, single point]"
CCOC(=O)/C=C(\C)Sc1cc(=O)oc2ccccc12,,"inconclusive: 18.4 µM [falling, partial curve]"
CCCCCNC(=O)c1ccc2c(=O)[nH]c3c(C(=O)NCC4CCCO4)sc(=S)n3c2c1 (configuration not stated),,"inconclusive: 29.1 µM [rising, single point]"
Cc1ccc(NC(=O)c2cnccn2)nc1,inconclusive: 398%,
COc1ccc(C(=O)OCC(=O)Nc2ccc(Cl)c(C(F)(F)F)c2)c(OC)c1OC,,"inconclusive: 16.4 µM [falling, single point]"
O=C(NC(=S)Nc1ccccc1N1CCCC1)c1ccc(F)cc1,inconclusive: 0.268%,
CCOc1ccc(CCNC(=O)CN2C(=O)CCSc3ccccc32)cc1,inconclusive: 0.054%,
COc1ccc(Cc2nnc(N/N=C/c3ccc(O)cc3)[nH]c2=O)cc1OC,,"inconclusive: 0.651 µM [falling, full curve, poor fit]"
CCN1C(=O)c2cccc3c(NC(=O)c4ccccc4)ccc1c23,inconclusive: -1.38%,
O=c1c(Cl)c(NCCO)cnn1-c1cccc(Cl)c1,inconclusive: 5.03%,
Cc1ccccc1N=C1NC(=O)CC(c2ccccc2)S1 (configuration not stated),,"inconclusive: 20.6 µM [falling, single point]"
Clc1ccc(-n2ncc3c(NCc4ccco4)ncnc32)cc1,inconclusive: -6.14%,
C=CCNC(=O)COc1ccc(S(=O)(=O)NC2CCCCC2)cc1,inactive,
